# Measurements from PMC7862700.
# The chains behind the UniProt entries cited, without tags or fusion partners. Where a name states a change or a piece, a line headed by the entry shows the natural chain unless it says otherwise.
# UniProt Q01892: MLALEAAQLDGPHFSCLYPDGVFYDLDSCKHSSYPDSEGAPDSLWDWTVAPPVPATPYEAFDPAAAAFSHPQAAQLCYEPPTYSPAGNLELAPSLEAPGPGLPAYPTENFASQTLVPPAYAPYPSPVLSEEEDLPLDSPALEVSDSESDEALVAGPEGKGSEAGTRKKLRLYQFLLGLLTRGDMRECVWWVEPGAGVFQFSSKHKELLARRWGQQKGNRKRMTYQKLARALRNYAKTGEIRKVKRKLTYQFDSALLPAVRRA
# UniProt P41161: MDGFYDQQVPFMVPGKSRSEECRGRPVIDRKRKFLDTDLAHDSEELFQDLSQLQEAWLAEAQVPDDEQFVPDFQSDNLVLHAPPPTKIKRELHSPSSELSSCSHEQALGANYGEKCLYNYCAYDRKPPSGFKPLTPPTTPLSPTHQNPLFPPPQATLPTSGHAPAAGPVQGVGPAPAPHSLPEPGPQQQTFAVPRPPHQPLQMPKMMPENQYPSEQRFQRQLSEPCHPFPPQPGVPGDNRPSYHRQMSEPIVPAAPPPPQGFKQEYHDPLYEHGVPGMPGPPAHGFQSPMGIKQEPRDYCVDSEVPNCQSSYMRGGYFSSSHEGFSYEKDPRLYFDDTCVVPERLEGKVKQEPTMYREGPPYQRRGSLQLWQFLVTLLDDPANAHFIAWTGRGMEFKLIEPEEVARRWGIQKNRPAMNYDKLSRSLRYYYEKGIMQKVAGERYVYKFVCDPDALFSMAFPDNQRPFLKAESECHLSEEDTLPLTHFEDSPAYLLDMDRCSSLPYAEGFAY
# UniProt Q99607: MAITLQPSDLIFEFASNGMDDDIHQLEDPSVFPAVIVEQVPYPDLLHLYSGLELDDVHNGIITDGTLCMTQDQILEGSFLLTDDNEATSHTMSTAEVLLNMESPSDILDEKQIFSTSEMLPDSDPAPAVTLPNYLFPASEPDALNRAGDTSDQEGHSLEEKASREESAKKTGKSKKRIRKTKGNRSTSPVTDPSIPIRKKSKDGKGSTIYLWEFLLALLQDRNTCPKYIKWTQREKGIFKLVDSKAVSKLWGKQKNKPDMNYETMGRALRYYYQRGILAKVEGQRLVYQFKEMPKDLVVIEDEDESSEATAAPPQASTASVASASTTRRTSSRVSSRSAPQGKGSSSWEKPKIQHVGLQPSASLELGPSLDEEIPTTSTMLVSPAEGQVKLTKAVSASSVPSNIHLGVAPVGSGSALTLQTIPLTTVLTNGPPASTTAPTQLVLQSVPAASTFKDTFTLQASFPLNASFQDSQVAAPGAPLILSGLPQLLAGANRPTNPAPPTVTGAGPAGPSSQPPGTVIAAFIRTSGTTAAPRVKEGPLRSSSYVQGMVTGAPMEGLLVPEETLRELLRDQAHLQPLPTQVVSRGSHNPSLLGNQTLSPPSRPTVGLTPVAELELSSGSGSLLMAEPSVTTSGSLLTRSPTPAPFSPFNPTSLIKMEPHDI
# The list shows a part of the results, in another mix than the full data. At the low end of the ranking the order means little.
# Tests used:
# Assay in all cases: DAPPL (digital affinity profiling via proximity ligation, sequencing)
# Details in all cases: 10 mM Tris-HCl pH 7.5, 50 mM NaCl, 1 mM DTT, 4% glycerol, room temperature, 30 min; GST-TFs on glutathione beads, 16-mer random dsDNA library, 0.1% …; high values mean tight binding; double strand, one strand shown; scale: fold enrichment (6-mer frequency, TF over GST control)
# [1] = target: T1, FLI1 (UniProt Q01543)
# T1 sequence: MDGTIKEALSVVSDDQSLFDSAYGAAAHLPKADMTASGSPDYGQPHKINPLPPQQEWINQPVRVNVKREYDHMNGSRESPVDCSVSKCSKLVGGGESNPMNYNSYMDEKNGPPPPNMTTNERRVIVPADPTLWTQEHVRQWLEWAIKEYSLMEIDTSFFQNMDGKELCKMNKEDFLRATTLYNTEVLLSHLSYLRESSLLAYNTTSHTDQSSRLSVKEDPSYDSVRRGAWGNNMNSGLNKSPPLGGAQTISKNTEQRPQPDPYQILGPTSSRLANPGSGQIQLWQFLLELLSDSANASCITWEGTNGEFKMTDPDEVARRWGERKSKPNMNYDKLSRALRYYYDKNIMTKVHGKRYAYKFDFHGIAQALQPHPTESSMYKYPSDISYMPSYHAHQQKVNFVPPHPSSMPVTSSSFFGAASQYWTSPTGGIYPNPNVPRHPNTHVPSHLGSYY
# [2] = target: T2, EHF (UniProt Q9NZC4)
# T2 sequence: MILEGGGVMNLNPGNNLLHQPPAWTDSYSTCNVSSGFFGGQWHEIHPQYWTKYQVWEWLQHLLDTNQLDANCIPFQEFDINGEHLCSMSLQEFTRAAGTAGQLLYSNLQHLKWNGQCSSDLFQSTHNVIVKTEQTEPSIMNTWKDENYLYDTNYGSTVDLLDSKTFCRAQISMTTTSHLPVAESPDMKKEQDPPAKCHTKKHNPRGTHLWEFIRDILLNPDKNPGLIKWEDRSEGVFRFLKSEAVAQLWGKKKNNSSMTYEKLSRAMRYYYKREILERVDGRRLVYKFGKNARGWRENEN
# [3] = target: SPIB (UniProt Q01892)
# [4] = target: ETV5 (UniProt P41161)
# [5] = target: ELF4 (UniProt Q99607)
# [6] = target: T3, ETV2 (UniProt O00321)
# T3 sequence: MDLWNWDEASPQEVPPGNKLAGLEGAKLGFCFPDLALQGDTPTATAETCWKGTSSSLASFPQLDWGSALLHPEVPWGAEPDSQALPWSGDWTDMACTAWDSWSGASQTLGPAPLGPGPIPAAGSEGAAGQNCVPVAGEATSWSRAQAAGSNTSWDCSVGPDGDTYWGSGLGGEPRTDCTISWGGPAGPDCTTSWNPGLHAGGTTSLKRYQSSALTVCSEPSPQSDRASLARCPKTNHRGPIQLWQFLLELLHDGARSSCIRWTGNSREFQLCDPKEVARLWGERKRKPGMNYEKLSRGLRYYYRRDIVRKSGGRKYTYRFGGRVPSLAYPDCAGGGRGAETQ
# [7] = target: T4, ETV3L (UniProt Q6ZN32)
# T4 sequence: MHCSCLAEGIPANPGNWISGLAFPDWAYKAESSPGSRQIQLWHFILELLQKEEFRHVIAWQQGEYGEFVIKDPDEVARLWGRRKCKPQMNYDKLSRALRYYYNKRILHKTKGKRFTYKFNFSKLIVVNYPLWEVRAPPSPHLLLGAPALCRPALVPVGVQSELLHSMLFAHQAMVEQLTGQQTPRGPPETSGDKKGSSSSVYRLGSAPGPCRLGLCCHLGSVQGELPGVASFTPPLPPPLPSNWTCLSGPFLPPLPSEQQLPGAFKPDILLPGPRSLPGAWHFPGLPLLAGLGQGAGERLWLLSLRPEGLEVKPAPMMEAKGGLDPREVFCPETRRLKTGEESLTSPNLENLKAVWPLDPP
Sequence,binding signal [1],binding signal [2],binding signal [3],binding signal [4],binding signal [5],binding signal [6],binding signal [7]
TACAGT,0.928,0.882,0.906,0.871,0.922,0.819,0.894
AGTTGA,0.811,0.795,0.829,0.754,0.805,0.708,0.791
AGGCCG,0.463,0.457,0.48,0.457,0.498,0.532,0.459
ACAGAC,0.75,0.822,0.806,0.809,0.86,0.851,0.794
GGGAGA,0.318,0.329,0.31,0.346,0.312,0.335,0.3
GGCAAG,0.72,0.723,0.679,0.705,0.714,0.583,0.739
GCGTGG,0.509,0.524,0.589,0.521,0.563,0.543,0.612
AGTCGC,0.492,0.478,0.489,0.508,0.518,0.539,0.481
GGTAGT,0.781,0.711,0.778,0.803,0.765,0.801,0.732
GCCCGT,0.728,0.571,0.701,0.642,0.628,0.638,0.636
CTCGGA,0.938,0.826,0.805,0.845,0.81,0.823,0.87
GCGCTA,0.936,0.901,0.884,0.854,0.961,0.945,0.895
CCGGGA,0.513,0.522,0.508,0.5,0.476,0.443,0.467
GCCAGC,0.795,0.736,0.724,0.738,0.789,0.788,0.716
TCGGGT,0.594,0.574,0.529,0.582,0.584,0.544,0.599
CGGACT,0.846,0.91,0.876,0.853,0.859,0.82,0.885
GGTTGG,0.621,0.782,0.717,0.663,0.753,0.644,0.741
GAGGGG,0.52,0.499,0.54,0.545,0.509,0.6,0.49
GGAGGG,0.333,0.298,0.332,0.331,0.272,0.293,0.331
CAGACG,0.488,0.493,0.464,0.448,0.49,0.551,0.461

# Part of the list above, reduced to binding signal [1] and binding signal [7]:
Sequence	binding signal [1]	binding signal [7]
AGGCCG	0.463	0.459
GCCCGT	0.728	0.636
